Experimental data from PMC11915870.
No constants are given. Whether binding was seen depends on the method and setting. In cells and extracts the contact can be indirect. Some results given as binding are weak or reduced against the parent protein; the word gives no strength.

Sequences of proteins named here, by UniProt entry; tags and fusion partners are left off.
UniProt Q92769: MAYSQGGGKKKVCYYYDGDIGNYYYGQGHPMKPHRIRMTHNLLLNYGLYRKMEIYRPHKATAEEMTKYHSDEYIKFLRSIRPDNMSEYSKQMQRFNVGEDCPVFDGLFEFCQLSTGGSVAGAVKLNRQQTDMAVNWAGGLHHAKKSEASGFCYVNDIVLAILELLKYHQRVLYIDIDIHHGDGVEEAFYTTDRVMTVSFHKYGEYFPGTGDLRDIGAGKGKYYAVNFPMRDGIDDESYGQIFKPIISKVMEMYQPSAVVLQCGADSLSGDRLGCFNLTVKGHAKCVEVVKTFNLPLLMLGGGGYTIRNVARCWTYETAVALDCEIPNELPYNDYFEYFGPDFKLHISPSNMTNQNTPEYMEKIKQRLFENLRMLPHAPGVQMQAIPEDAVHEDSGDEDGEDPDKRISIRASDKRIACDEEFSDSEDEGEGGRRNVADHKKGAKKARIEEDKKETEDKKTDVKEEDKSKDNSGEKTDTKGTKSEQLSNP
UniProt Q13547: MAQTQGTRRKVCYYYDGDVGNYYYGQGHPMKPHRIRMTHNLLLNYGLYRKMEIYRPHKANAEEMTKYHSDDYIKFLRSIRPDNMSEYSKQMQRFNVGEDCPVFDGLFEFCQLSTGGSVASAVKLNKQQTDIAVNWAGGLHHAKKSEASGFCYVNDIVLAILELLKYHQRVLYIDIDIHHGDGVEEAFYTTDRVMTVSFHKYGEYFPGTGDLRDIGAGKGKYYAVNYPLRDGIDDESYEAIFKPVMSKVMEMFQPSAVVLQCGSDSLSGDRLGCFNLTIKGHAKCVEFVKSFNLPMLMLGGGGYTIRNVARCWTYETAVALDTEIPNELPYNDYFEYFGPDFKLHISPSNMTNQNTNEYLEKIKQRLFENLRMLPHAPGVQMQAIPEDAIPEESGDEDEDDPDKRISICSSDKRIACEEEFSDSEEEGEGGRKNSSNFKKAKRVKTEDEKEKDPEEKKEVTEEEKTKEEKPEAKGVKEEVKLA
UniProt Q16666: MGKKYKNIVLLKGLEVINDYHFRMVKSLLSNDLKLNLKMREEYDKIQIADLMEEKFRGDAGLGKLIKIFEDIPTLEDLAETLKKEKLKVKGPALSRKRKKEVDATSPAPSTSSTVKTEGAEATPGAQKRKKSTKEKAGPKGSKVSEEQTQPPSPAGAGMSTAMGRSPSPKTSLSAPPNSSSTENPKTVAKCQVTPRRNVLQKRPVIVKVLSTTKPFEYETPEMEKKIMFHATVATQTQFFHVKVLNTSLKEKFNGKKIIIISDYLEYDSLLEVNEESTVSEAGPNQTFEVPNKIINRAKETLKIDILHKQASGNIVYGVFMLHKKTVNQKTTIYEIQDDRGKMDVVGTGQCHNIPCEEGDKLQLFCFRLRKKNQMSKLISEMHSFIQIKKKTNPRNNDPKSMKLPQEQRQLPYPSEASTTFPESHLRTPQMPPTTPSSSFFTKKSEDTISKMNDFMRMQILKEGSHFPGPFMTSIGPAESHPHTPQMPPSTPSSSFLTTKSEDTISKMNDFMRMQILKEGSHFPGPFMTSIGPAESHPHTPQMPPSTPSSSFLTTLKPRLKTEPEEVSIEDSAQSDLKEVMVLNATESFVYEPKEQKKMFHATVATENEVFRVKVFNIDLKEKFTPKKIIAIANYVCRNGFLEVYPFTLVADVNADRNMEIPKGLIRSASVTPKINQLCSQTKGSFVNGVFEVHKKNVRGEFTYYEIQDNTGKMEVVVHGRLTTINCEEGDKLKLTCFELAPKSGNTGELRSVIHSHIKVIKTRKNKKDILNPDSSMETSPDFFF

Columns and labels:
[1] = molecular target: HDAC2, endogenous (human (endogenous in BCBL1, BC3, BJAB, iSLK.219, HEK293T, U2OS)) (UniProt Q92769); test: co-IP; endogenous/virally expressed proteins; whole-cell lysates (Pierce IP lysis buffer with protease, phosphatase and HDAC inhibitors) of BCBL1, BC3, BJAB or iSLK.219 cells; IP with specific antibody or control IgG on protein A/G beads overnight at 4°C, Western blot; also done after shRNA KD of HDAC1/2 (BCBL1) and siRNA KD of IFI16 (iSLK.219)
[2] = molecular target: HDAC1, endogenous (human (endogenous in BCBL1, BC3, BJAB, iSLK.219, HEK293T, U2OS)) (UniProt Q13547); test: as above
[3] = molecular target: Interferon-γ-inducible protein 16 (IFI16), endogenous (human (endogenous in BCBL1, BC3, BJAB, iSLK, iSLK.219, U2OS)) (UniProt Q16666); test: proximity ligation; DUOLink PLA on fixed, permeabilised cells with endogenous/virally expressed proteins: BJAB, BCBL1, uninduced TREX-BCBL1, iSLK.219, iSLK de novo infected with KSHV or EdU-KSHV; also after NaB, shHDAC1/2 or siIFI16 treatment
[4] = molecular target: Interferon-γ-inducible protein 16 (IFI16), endogenous (human (endogenous in BCBL1, BC3, BJAB, iSLK, iSLK.219, U2OS)) (UniProt Q16666); test: co-IP; endogenous/virally expressed proteins; whole-cell lysates (Pierce IP lysis buffer with protease, phosphatase and HDAC inhibitors) of BCBL1, BC3, BJAB or iSLK.219 cells; IP with specific antibody or control IgG on protein A/G beads overnight at 4°C, Western blot; also done after shRNA KD of HDAC1/2 (BCBL1) and siRNA KD of IFI16 (iSLK.219)

| binding [1] | binding [2] | binding [3] | binding [4] | Substance |
| --- | --- | --- | --- | --- |
| binds | binds |  |  | Interferon-γ-inducible protein 16 (IFI16), endogenous (from UniProt Q16666 1-785) |
|  |  | binds | binds | HDAC2, endogenous (from UniProt Q92769 1-488) (enzyme) |
|  |  | binds | binds | HDAC1, endogenous (from UniProt Q13547 1-482) (enzyme) |
